This note sets out measurements from PMC7206739.

These are yes or no findings as the source states them, for the method shown. Binding can be weak; no strength is given. For some assays here: In cells and extracts the contact can be indirect. For some assays here: Tags and fused reporters may be left off the sequences shown.

Test [1] concerns the target T1, HA-tagged mouse NSMCE4A (mouse) (UniProt G3XA30).
T1 sequence: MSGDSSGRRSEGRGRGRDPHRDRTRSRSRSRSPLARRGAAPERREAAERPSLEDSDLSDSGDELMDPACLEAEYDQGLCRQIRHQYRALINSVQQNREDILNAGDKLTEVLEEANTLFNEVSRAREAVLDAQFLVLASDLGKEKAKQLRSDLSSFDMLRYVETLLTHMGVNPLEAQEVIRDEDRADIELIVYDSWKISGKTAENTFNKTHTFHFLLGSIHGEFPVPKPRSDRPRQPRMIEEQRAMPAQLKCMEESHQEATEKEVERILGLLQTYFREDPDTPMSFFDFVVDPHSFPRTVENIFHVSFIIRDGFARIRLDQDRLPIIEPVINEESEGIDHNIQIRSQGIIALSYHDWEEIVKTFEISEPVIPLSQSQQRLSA
Briefly: co-IP; FLAG-tagged GPS1 and HA-tagged NSMCE4A expressed or co-expressed in HEK 293T cells; anti-FLAG or anti-HA antibody coupled to Dynabeads; lysis buffer with 100 mM NaCl, 1 mM DTT; western blot.

Test [2] concerns the target T2, NSMCE4A bait (full length, mouse) (mouse) (UniProt G3XA30).
T2 sequence: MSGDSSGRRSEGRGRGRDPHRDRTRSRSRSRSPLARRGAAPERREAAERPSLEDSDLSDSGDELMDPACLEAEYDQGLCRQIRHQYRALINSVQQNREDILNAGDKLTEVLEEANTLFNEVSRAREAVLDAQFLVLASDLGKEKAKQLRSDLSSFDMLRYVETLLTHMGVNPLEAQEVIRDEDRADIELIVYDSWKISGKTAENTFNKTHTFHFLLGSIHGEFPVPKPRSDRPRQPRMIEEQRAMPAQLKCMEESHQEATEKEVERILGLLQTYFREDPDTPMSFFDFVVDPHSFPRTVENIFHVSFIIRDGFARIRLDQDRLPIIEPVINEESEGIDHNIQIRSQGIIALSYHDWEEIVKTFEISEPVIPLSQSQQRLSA
Briefly: two-hybrid; full length NSMCE4A bait against defined GPS1 prey constructs; growth on SD -Leu -Trp with 200 ng/ml Aureobasidin A, -Ade or -His.

Test [3] concerns the target FLAG-tagged mouse GPS1 (mouse). Briefly: co-IP; FLAG-tagged GPS1 and HA-tagged NSMCE4A expressed or co-expressed in HEK 293T cells; anti-FLAG or anti-HA antibody coupled to Dynabeads; lysis buffer with 100 mM NaCl, 1 mM DTT; western blot. For orientation: A western blot detects proteins with antibodies after separation by electrophoresis.

Regarding FLAG-tagged mouse GPS1, the binding entry in test [1] is “binds”.

In the case of “GPS1, 1–526 aa (full-length prey) (mouse)”, the binding entry in test [2] is listed as “binds weakly”.

Regarding “GPS1, 77–526 aa (prey) (mouse) (domain or fragment)”, the binding entry in test [2] is “binds”.

B1: HA-tagged mouse NSMCE4A (protein, UniProt G3XA30 1-381)
chain: MSGDSSGRRSEGRGRGRDPHRDRTRSRSRSRSPLARRGAAPERREAAERPSLEDSDLSDSGDELMDPACLEAEYDQGLCRQIRHQYRALINSVQQNREDILNAGDKLTEVLEEANTLFNEVSRAREAVLDAQFLVLASDLGKEKAKQLRSDLSSFDMLRYVETLLTHMGVNPLEAQEVIRDEDRADIELIVYDSWKISGKTAENTFNKTHTFHFLLGSIHGEFPVPKPRSDRPRQPRMIEEQRAMPAQLKCMEESHQEATEKEVERILGLLQTYFREDPDTPMSFFDFVVDPHSFPRTVENIFHVSFIIRDGFARIRLDQDRLPIIEPVINEESEGIDHNIQIRSQGIIALSYHDWEEIVKTFEISEPVIPLSQSQQRLSA
Turning to B1, the binding entry in test [3] is reported as “binds”.

B2: NSMCE1 (protein, UniProt Q8WV22 1-266)
chain: MQGSTRRMGVMTDVHRRFLQLLMTHGVLEEWDVKRLQTHCYKVHDRNATVDKLEDFINNINSVLESLYIEIKRGVTEDDGRPIYALVNLATTSISKMATDFAENELDLFRKALELIIDSETGFASSTNILNLVDQLKGKKMRKKEAEQVLQKFVQNKWLIEKEGEFTLHGRAILEMEQYIRETYPDAVKICNICHSLLIQGQSCETCGIRMHLPCVAKYFQSNAEPRCPHCNDYWPHEIPKVFDPEKERESGVLKSNKKSLRSRQH
As to B2, the binding entry in test [3] is recorded as “binds”.
